Test results taken from patent US20080045454A1.
Results are given in words; binding and its absence hold for the method and conditions named. For part of these data: Binding seen in cells or lysates may run through a third protein. Some entries that bind do so weakly or less than the wild type. For part of these data: Sequences can lack the tags named with a protein.

Sequences of proteins named here, by UniProt entry; tags and fusion partners are left off. A change or cut given only in a name is not applied to a line headed by its entry. A line that says so, or that is headed by a name, gives the form on record, which may keep a tag or linker. Residues count along the entry.
UniProt Q9C035: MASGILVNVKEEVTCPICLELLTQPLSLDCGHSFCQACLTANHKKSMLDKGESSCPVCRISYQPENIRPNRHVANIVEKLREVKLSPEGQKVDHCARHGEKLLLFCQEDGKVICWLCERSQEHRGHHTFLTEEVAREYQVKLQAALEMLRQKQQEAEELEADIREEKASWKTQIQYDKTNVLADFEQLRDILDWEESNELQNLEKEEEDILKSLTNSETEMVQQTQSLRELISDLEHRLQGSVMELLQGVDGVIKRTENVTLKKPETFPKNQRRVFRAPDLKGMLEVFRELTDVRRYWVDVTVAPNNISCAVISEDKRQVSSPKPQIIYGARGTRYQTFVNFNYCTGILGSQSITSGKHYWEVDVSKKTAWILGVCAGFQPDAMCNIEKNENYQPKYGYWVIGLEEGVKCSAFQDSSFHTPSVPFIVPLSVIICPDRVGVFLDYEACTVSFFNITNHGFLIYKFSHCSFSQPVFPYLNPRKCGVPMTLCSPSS
huTRIMStop fused to lexA: residues 1-299 of Q9C035
GST-TRIM5αhu (glutathione S-transferase fusion with full-length human TRIM5α): residues 2-493 of Q9C035

Assays:
[1] = biological target: huTRIMStop fused to lexA (human) (UniProt Q9C035); assay: yeast two-hybrid, β-galactosidase reporter
[2] = biological target: GST-TRIM5αhu (glutathione S-transferase fusion with full-length human TRIM5α) (human) (UniProt Q9C035); assay: title of the legend of FIGS. 9A-9B (yeast two-hybrid and GST pull-down from 293T cells)
[3] = biological target: GST-TRIM5αhu (glutathione S-transferase fusion with full-length human TRIM5α) (human) (UniProt Q9C035); assay: GST pull-down on glutathione-Sepharose from cotransfected 293T cells, Western blot with anti-TRIM5

Row | binding [1] | binding [2] | binding [3] | Binder
1 | binds |  |  | TRIMStop expressed in fusion with the B42 activation domain (protein, not shown: large carriers) MASRILVNIKEEVTCPICLELLTEPLSLDCGHSFCQACITANHKKSMPHQGERSCPLCRISYSSENLRPNRHLVNIVERLREVMLSPEEGQKVDHCAHHGEKLVLFCQQDGNVICWLCERSQEHRGHQTFLVEEVAQKYREKLQVALEMMRQKQKDAEKLEADVREEQASWKIQIQNDKTNIMAEFKKRRDILDCEESKELQNLEKEEKNILKRLVQSENDMVLQTQSVRVLISDLEHRLQGSVMELLQGVDGVIKRIEKVTLQNPKTFLNEKRRIFQTPDLKGTLQVFKEPTEVQRYWDAAAWDLVASA
2 |  | binds | binds | TRIMStop (protein) MASRILVNIKEEVTCPICLELLTEPLSLDCGHSFCQACITANHKKSMPHQGERSCPLCRISYSSENLRPNRHLVNIVERLREVMLSPEEGQKVDHCAHHGEKLVLFCQQDGNVICWLCERSQEHRGHQTFLVEEVAQKYREKLQVALEMMRQKQKDAEKLEADVREEQASWKIQIQNDKTNIMAEFKKRRDILDCEESKELQNLEKEEKNILKRLVQSENDMVLQTQSVRVLISDLEHRLQGSVMELLQGVDGVIKRIEKVTLQNPKTFLNEKRRIFQTPDLKGTLQVFKEPTEVQRYWDAAAWDLVASA
